Data from PubChem BioAssay AID224 (DTP/NCI, 2004).
The list does not hold the whole screen: it is rich in T/C values a quarter to a half above the control, in often repeated tests (any T/C) and in doses without a T/C. Further doses and runs are listed elsewhere. T/C: endpoint of the treated group in % of that of the vehicle group. Some doses have a count of surviving animals in place of a T/C: the source holds a T/C of zero for them, seemingly a mark for toxic or unscored doses. Some survivor counts are full or nearly so, which does not show that the dose was tolerated: the source hardly ever lists a survival T/C far under the control, and the zero likely stands for such cases as well. Survivors were counted at the toxicity check, usually on the fifth day, unless a day is given; later deaths do not show. Schedules are NCI's codes, read here as Q, the interval in days (D) or hours (H), X, the number of doses. Some schedule codes hold Z or #, which are not explained here. Some entries hold several experiments; their values stand side by side, smallest first. Where survival is the endpoint, the PubChem record calls one and a half times the control and up active, and a quarter to a half above the control has no call in these data; cut-offs in other NCI protocols can differ.

Tested on: P335 leukemia ip, BDF1 mice, survival T/C %
Test: NCI In Vivo Anticancer Drug Screen. Data for tumor model P335 Leukemia (intraperitoneal) in B6D2F1 (BDF1) mice
Details: T/C endpoint: mean survival time, higher T/C = longer survival
Protocol: The antitumor activity of compounds was measured in mice bearing transplantable tumors. Survival or tumor size were measured and the results are expressed as the measurement made in the treated group (T) divided by the measurement made in the vehicle treated control group (C). The tumor model used in this assay is P335 Leukemia (intraperitoneal) in B6D2F1 (BDF1) mice

[1] = dose: 25.0 mg/kg/injection, schedule: Q01DX Z (ip), vehicle: carboxymethylcellulose (CMC)
[2] = dose: 200.0 mg/kg/injection, schedule: Q01DX Z (ip), vehicle: methylcellulose (MC)
[3] = dose: 75.0 mg/kg/injection, schedule: Q01DX Z (ip), vehicle: carboxymethylcellulose (CMC)
[4] = dose: 250.0 mg/kg/injection, schedule: Q01DX Z (ip), vehicle: carboxymethylcellulose (CMC)
[5] = dose: 2000.0 mg/kg/injection, schedule: Q01DX Z (ip), vehicle: carboxymethylcellulose (CMC)
[6] = dose: 100.0 mg/kg/injection, schedule: Q01DX Z (ip), vehicle: carboxymethylcellulose (CMC)
[7] = dose: 25.0 mg/kg/injection, schedule: Q01DX Z (ip), vehicle: saline
[8] = dose: 200.0 mg/kg/injection, schedule: Q01DX Z (ip), vehicle: saline
[9] = dose: 200.0 mg/kg/injection, schedule: Q01DX Z (ip), vehicle: carboxymethylcellulose (CMC)

O=c1[nH]c(=O)n(C2CC(O)C(CO)O2)cc1I (configuration not stated)
survivor count (dose: 900.0 mg/kg/injection, schedule: Q01DX Z (ip), vehicle: carboxymethylcellulose (CMC)): 6 of 6 | survivor count (dose: 1800.0 mg/kg/injection, schedule: Q01DX Z (ip), vehicle: carboxymethylcellulose (CMC)): 1 of 6

CSc1ncnc2nc[nH]c12
survivor count (dose: 6.25 mg/kg/injection, schedule: Q01DX Z (ip), vehicle: carboxymethylcellulose (CMC)): 6 of 6 | survivor count [1]: 6 of 6 | survivor count (dose: 25.0 mg/kg/injection, schedule: Q01DX Z (ip), vehicle: methylcellulose (MC)): 6 of 6 | survivor count (dose: 100.0 mg/kg/injection, schedule: Q01DX Z (ip), vehicle: methylcellulose (MC)): 6 of 6 | survivor count [2]: 5 of 6

Nc1nc(SCc2ccccc2)c2[nH]cnc2n1
survivor count (dose: 1.2 mg/kg/injection, schedule: Q01DX Z (ip), vehicle: carboxymethylcellulose (CMC)): 3 of 6 | survivor count (dose: 4.7 mg/kg/injection, schedule: Q01DX Z (ip), vehicle: carboxymethylcellulose (CMC)): 3 of 6 | survivor count (dose: 37.5 mg/kg/injection, schedule: Q01DX Z (ip), vehicle: carboxymethylcellulose (CMC)): 6 of 6 | survivor count [3]: 0 of 6

CN(C)c1nc(N(C)C)nc(N(C)C)n1
T/C [4]: 127 % of control | survivor count [5]: 3 of 6

Nc1ncnc2c1ccn2C1OC(CO)C(O)C1O (configuration not stated)
survivor count (dose: 0.63 mg/kg/injection, schedule: Q01DX Z (ip), vehicle: carboxymethylcellulose (CMC)): 6 of 6 | survivor count (dose: 2.5 mg/kg/injection, schedule: Q01DX Z (ip), vehicle: carboxymethylcellulose (CMC)): 5 of 6

O=C(Nc1ccc(C2=NCCN2)cc1)c1ccc(C(=O)Nc2ccc(C3=NCCN3)cc2)c(Cl)c1
T/C (dose: 15.0 mg/kg/injection, schedule: Q01DX Z (ip), vehicle: water): 135 % of control

Cn1cnc([N+](=O)[O-])c1Sc1ncnc2nc[nH]c12
survivor count [6]: 6 of 6

NC(Cc1ccc(N(CCCl)CCCl)cc1)C(=O)O (configuration not stated)
survivor count (dose: 10.0 mg/kg/injection, schedule: Q01DX Z (ip), vehicle: carboxymethylcellulose (CMC)): 5 of 6 | survivor count (dose: 20.0 mg/kg/injection, schedule: Q01DX Z (ip), vehicle: carboxymethylcellulose (CMC)): 5 of 6 | survivor count (dose: 40.0 mg/kg/injection, schedule: Q01DX Z (ip), vehicle: carboxymethylcellulose (CMC)): 0 of 6

S=c1nc[nH]c2nc[nH]c12
T/C (dose: 150.0 mg/kg/injection, schedule: Q01DX Z (ip), vehicle: other): 137 % of control

C[C@]12CCC(=O)C=C1CC[C@@H]1[C@@H]2CC[C@@]2(C)[C@H]1CC[C@]2(C)O
T/C (dose: 0.25 mg/kg/injection, schedule: Q01DX Z (sc), vehicle: steroid suspending solution): 138 % of control | T/C (dose: 1.0 mg/kg/injection, schedule: Q01DX Z (sc), vehicle: steroid suspending solution): 143 % of control | T/C (dose: 2.0 mg/kg/injection, schedule: Q01DX Z (sc), vehicle: steroid suspending solution): 128 % of control

CCN(CC)CCNc1ccc(C)c2sc3ccccc3c(=O)c12
survivor count (dose: 50.0 mg/kg/injection, schedule: Q01DX Z (ip), vehicle: methylcellulose (MC)): 6 of 6 | survivor count [2]: 0 of 6

CSc1ncnc2c1ncn2C1OC(CO)C(O)C1O (configuration not stated)
T/C [1]: 132 % of control | survivor count [6]: 6 of 6

CN(N=O)C(=O)NC(C=O)C(O)C(O)C(O)CO (configuration not stated)
T/C [7]: 131 % of control | T/C (dose: 50.0 mg/kg/injection, schedule: Q01DX Z (ip), vehicle: saline): 139 % of control | T/C [8]: 126 % of control | survivor count (dose: 400.0 mg/kg/injection, schedule: Q01DX Z (ip), vehicle: saline): 1 of 6

CCCCNc1ncnc2c1cnn2C
survivor count (dose: 125.0 mg/kg/injection, schedule: Q01DX Z (ip), vehicle: carboxymethylcellulose (CMC)): 1 of 6 | survivor count [4]: 0 of 6

O=C1CCC(N2C(=O)c3ccccc3C2=O)C(=O)N1 (configuration not stated)
T/C [3]: 138 % of control

O=c1[nH]cc(F)c(=O)[nH]1
T/C (dose: 6.25 mg/kg/injection, schedule: Q01DX Z (ip), vehicle: saline): 138 % of control | T/C [7]: 127 % of control | survivor count [8]: 6 of 6

O=C(Nc1ccc(C2=NCCN2)cc1)c1ccc(C(=O)Nc2ccc(C3=NCCN3)cc2)cc1
T/C (dose: 400.0 mg/kg/injection, schedule: Q01DX Z (ip), vehicle: carboxymethylcellulose (CMC)): 129 % of control | survivor count (dose: 800.0 mg/kg/injection, schedule: Q01DX Z (ip), vehicle: carboxymethylcellulose (CMC)): 1 of 6 | survivor count (dose: 1600.0 mg/kg/injection, schedule: Q01DX Z (ip), vehicle: carboxymethylcellulose (CMC)): 1 of 6

C[N+](C)(C)c1ncnc2nc[nH]c12
survivor count [1]: 6 of 6 | survivor count (dose: 50.0 mg/kg/injection, schedule: Q01DX Z (ip), vehicle: carboxymethylcellulose (CMC)): 6 of 6 | survivor count [9]: 6 of 6

C[C@]12CC[C@H](OC3OC(CO)C(O)C(O)C3O)C[C@H]1CC[C@@H]1[C@@H]2CC[C@]2(C)[C@@H](C3=CCOC3=O)CC[C@]12O (some centres not stated)
survivor count (dose: 0.03 mg/kg/injection, schedule: Q01DX Z (ip), vehicle: saline): 6 of 6 | survivor count (dose: 0.06 mg/kg/injection, schedule: Q01DX Z (ip), vehicle: saline): 6 of 6 | survivor count (dose: 0.12 mg/kg/injection, schedule: Q01DX Z (ip), vehicle: saline): 5 of 6 and 6 of 6 | survivor count (dose: 0.25 mg/kg/injection, schedule: Q01DX Z (ip), vehicle: saline): 2 of 6 and 5 of 6 | survivor count (dose: 0.5 mg/kg/injection, schedule: Q01DX Z (ip), vehicle: saline): 6 of 6 | survivor count (dose: 1.0 mg/kg/injection, schedule: Q01DX Z (ip), vehicle: saline): 6 of 6 | survivor count (dose: 10.0 micrograms/kg/injection, schedule: Q01DX Z (ip), vehicle: saline): 6 of 6 | survivor count (dose: 20.0 micrograms/kg/injection, schedule: Q01DX Z (ip), vehicle: saline): 6 of 6 | survivor count (dose: 40.0 micrograms/kg/injection, schedule: Q01DX Z (ip), vehicle: saline): 6 of 6 | survivor count (dose: 80.0 micrograms/kg/injection, schedule: Q01DX Z (ip), vehicle: saline): 6 of 6

[I][Hg][CH2]C1COC([CH2][Hg][I])CO1 (configuration not stated)
survivor count (dose: 0.95 mg/kg/injection, schedule: Q01DX Z (ip), vehicle: carboxymethylcellulose (CMC)): 6 of 6 | survivor count (dose: 1.9 mg/kg/injection, schedule: Q01DX Z (ip), vehicle: carboxymethylcellulose (CMC)): 6 of 6 | T/C (dose: 7.5 mg/kg/injection, schedule: Q01DX Z (ip), vehicle: carboxymethylcellulose (CMC)): 131 % of control | survivor count (dose: 60.0 mg/kg/injection, schedule: Q01DX Z (ip), vehicle: carboxymethylcellulose (CMC)): 6 of 6 | survivor count (dose: 120.0 mg/kg/injection, schedule: Q01DX Z (ip), vehicle: carboxymethylcellulose (CMC)): 2 of 6

C[C@@H]1C[C@H]2CC[C@H](O2)[C@H](C)C(=O)O[C@@H](C)C[C@@H]2CC[C@@H](O2)[C@@H](C)C(=O)O[C@H](C)C[C@H]2CC[C@H](O2)[C@H](C)C(=O)O[C@@H](C)C[C@@H]2CC[C@@H](O2)[C@@H](C)C(=O)O1
survivor count [9]: 6 of 6

O=c1cnn(C2OC(CO)C(O)C2O)c(=O)[nH]1 (configuration not stated)
survivor count (dose: 4.0 mg/kg/injection, schedule: Q01DX Z (ip), vehicle: water): 5 of 6 | T/C (dose: 31.25 mg/kg/injection, schedule: Q01DX Z (ip), vehicle: water): 134 % of control | T/C (dose: 62.5 mg/kg/injection, schedule: Q01DX Z (ip), vehicle: water): 132 % of control | T/C (dose: 125.0 mg/kg/injection, schedule: Q01DX Z (ip), vehicle: water): 125 and 148 % of control

O=c1[nH]c(=O)n(C2CC(O)C(CO)O2)cc1Br (configuration not stated)
survivor count [5]: 4 of 6

O=C(Nc1ccc(C2=NCCCN2)cc1)c1ccc(C(=O)Nc2ccc(C3=NCCCN3)cc2)cc1
T/C (dose: 0.8 mg/kg/injection, schedule: Q01DX Z (ip), vehicle: water): 130 % of control | survivor count (dose: 6.3 mg/kg/injection, schedule: Q01DX Z (ip), vehicle: water): 5 of 6
